# According to patent publication US20240335404A1, “SUBSTITUTED ESTERS CONTAINING POLYOLS AND SACCHARIDES FOR TREATING HEPATOTOXICITY AND FATTY LIVER DISEASES” (SINEW PHARMA INC., priority 2015, published 2024):
# At least one compound was matched to its structure with a doubt left.
# System: fatty liver
# Test: High fat diet-induced fatty liver in B6 mice
# Type: in vivo
# Settings: HFD mice
# Procedure: More than four mice were used in each group of the pre-test, while more than twelve mice were used in each group of the confirmatory test. […] The animal test was carried out according to the guideline for animal experiment of National Health Research Institutes. […] The weight of mice was recorded once a week. The tested animals were grouped randomly into Blank, High Fat Diet control (HFD), Positive Control (PS), and Test group. The animals of Blank were fed with normal feed. The animals of HFD were fed with high fat feed. […] The animals of Test group were fed with high fat feed, and additionally fed with test compounds by a tube. The animals of Blank were fed casually with normal feed for 12 weeks, while the animals of HFD, PS, and Test group were fed casually with high fat feed for 12 weeks. After 8 weeks of feeding, the animals of Blank and HFD were fed with deionized water by a tube once a day; the animals of PS were fed with silymarin by a tube once a day; and the animals of Test Group were fed with test compounds by a tube once a day for a duration of 4 or 8 weeks. Before testing and in the eighth, twelfth, and sixteenth week after testing, blood was collected from the cheek or the heart. At the end of testing, all mice were weighted and then sacrificed, and blood was collected from the cheek or the heart simultaneously. The blood specimens of mice rested at room temperature for one hour to clot, and then the serum was separated by centrifugation in a refrigeration centrifuge at 15,700×g at 4° C. for 5 minutes. Afterwards, biochemical indices of liver function, including aspartate transaminase (AST), alanine aminotransferase (ALT), triglyceride (TG), total cholesterol (TCHO/TC), low-density lipoprotein cholesterol (LDL-C), and high-density lipoprotein cholesterol (HDL-C), were detected by the automatic blood biochemistry analyzer. In addition, abdominal fat and liver specimens were taken from the abdomens of sacrificed mice and weighted to compare the weight of fat and liver and obtain the ratio of liver weight to body weight. […] The cut sections proceeded with H&E staining for histopathological observation. Moreover, the rest of the liver was frozen for preservation and detection of the contents of triglyceride and total cholesterol in the liver. Furthermore, the liver function of animals of each group were analyzed by Galactose Single Point Method, which was recognized and recommended for quantification of remaining liver function in clinical use by U.S. FDA and Ministry of Health and Welfare, Taiwan. […] As for the assessment of semi-quantitative analysis in pathology, it had to be confirmed by a physician or a veterinary pathologist who conducted a double-blind analysis to score (NAS score) and compare all the sections without knowing the test design. […]
compound,measurement,setting,value
O=C(CCc1ccc(O)cc1)c1c(O)cc(O)cc1O[C@@H]1O[C@H](CO)[C@@H](O)[C@H](O)[C@H]1O [Phloridzin],liver TC,4 or 8 weeks,reduce TC in liver significantly
same,liver TG,4 or 8 weeks,reduce TG in liver significantly
same,liver antioxidant activity,4 weeks,improve antioxidant activity significantly
same,ALT and AST values,compounds administered separately,reduce ALT and AST values significantly
